Test results taken from PubChem BioAssay (NCATS).
Inconclusive results, whose numbers are uncertain, are shown with a selection of clear calls. For some assays here: A potency beside an inconclusive call is a rough fit, not a confirmed value. For some assays here: “Side channel” marks fits to a control or component signal instead of the main read-out. Activity calls are given as the source filed them. Unless noted, the call rests on the fitted dose curve; in most records, active means well fitted curve in the direction sought with a large enough effect; inconclusive means small, poorly fitted or top-dose-only effect, or another doubt; inactive means no such curve, though single readings can be large; an effect the other way counts as inactive or inconclusive.

By UniProt entry, the sequences of proteins in these tests, tags left out. Where a name states a change or a piece, a line headed by the entry shows the natural chain unless it says otherwise.
UniProt Q99828: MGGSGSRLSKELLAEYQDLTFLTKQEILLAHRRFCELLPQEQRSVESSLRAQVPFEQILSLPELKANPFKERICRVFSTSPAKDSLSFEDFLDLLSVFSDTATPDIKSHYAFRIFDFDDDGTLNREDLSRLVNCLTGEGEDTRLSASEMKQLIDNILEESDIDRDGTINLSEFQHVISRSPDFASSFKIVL
UniProt P08482: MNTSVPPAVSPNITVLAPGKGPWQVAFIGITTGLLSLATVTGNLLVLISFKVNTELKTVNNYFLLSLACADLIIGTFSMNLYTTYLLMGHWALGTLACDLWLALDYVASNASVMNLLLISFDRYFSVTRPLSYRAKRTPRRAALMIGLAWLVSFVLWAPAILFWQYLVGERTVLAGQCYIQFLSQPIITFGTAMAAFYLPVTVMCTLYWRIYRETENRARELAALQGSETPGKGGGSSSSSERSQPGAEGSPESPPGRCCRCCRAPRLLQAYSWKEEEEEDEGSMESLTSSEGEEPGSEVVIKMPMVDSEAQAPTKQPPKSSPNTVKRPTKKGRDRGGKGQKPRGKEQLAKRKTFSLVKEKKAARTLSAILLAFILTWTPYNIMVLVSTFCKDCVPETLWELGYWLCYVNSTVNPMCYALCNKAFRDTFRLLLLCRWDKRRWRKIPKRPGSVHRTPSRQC
UniProt P07203, whole entry, looked up: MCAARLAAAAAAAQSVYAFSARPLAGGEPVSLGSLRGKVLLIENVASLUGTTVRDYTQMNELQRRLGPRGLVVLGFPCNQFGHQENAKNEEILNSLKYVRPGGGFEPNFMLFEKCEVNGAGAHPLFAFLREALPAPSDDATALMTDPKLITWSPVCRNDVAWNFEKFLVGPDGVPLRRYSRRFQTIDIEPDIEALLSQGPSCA

What was measured:
[1] = Stat Signaling Pathway (AID 446; active means well fitted curve in either direction with a large enough effect, not every such curve was filed as active; inconclusive means small, poorly fitted or top-dose-only effect, or another doubt;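 further: ME-180 cervical cancer cells given 40 pM IL-6 alongside compound; SIE-controlled beta-lactamase reporter measured as 460/530 nm FRET emission ratio; on the % scale 0 is the no-effect control and ±100 the full control effect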); settings: ME-180 SIE beta-lactamase reporter, IL-6 stimulated, 5 h; at 38 µM (top of the series)
Procedure, shortened: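 IL-6/STAT signaling read in ME-180 cells via an SIE beta-lactamase reporter. Stimulus was 40 pM IL-6 (its AC50) for 5 hrs, so both activation and inhibition register.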

[2] = qHTS Assay for Identification of Small Molecule Agonists for Hypoxia Response Element Signaling Pathway (AID 914; active means well fitted activation curve with a large enough effect in the signal ratio, with a control signal flat, not every such curve was filed as active; inconclusive means small, poorly fitted or top-dose-only effect, or effect the other way, or a change in a side signal; the % refers to the signal ratio; further: potency means the concentration at half of the fitted maximal effect); settings: ME-180 HRE-bla reporter, beta-lactamase ratio, CoCl2, 17 h; activation: active compounds read high
Procedure, shortened: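 Compounds in a titration series were added to ME-180 reporter cells alongside an EC50 level of CoCl2. After 17 hours, beta-lactamase activity was read as the 460nm/530nm emission ratio of CCF4, giving AC50 values.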

[3] = High Content Imaging Cell-Based qHTS for Inhibitors of the mTORC1 Signaling Pathway in MEF Cells (AID 2667); settings: series mostly up to 38.3 µM; further: potency means the concentration at half of the fitted maximal effect
Procedure, shortened: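 WT MEFs (Tsc2-/-, p53-/- re-expressing Tsc2), in DMEM + 10% FBS, were treated with compound for 24 h at 37 C. Cells were then fixed and stained for phospho-rpS6 Ser235/236 with propidium iodide as cell count. Values are % positive cells, with thresholds set against rapamycin-treated cells.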

[4] = qHTS Validation Assay to Find Inhibitors of Chronic Active B-Cell Receptor Signaling (AID 485345; active means well fitted curve in the direction sought with a large enough effect in the main read-out, with a control signal flat, not every such curve was filed as active; inconclusive means small, poorly fitted or top-dose-only effect, or effect the other way, or a change in a side signal; inactive means no such curve, though single readings can be large or run the other way;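 further: 0% = untreated basal cells and 100% = 10 µM MG-132 proteasome inhibitor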); settings: ABC-DLBCL cells, chronic BCR signaling reporter; activity change: CBG luciferase, at 46.1 µM (top of the series)
Procedure, shortened: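 TMD8 ABC-DLBCL cells stably carrying doxycycline-inducible IkappaBalpha–green luciferase fusion plus unfused red luciferase; compounds 46 uM to 3 nM, 4 h at 37C with doxycycline. Corrected green/red luminescence ratio normalized to 10 uM MG-132 and basal cell wells; curves fitted.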

[5] = qHTS for differential inhibitors of proliferation of Plasmodium falciparum line W2 (AID 1883); settings: Potency: Plasmodium falciparum W2 proliferation inhibition; series mostly up to 28.7 µM;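 further: potency means the concentration at half of the fitted maximal effect; parasites grown with compound for 72 h before lysis and staining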
[6] = Quantitative high throughput screen for delayed death inhibitors of the malarial parasite plastid, 48 hour incubation (AID 488752); settings: Plasmodium falciparum growth; series mostly up to 28.7 µM; further: potency means the concentration at half of the fitted maximal effect; nearly all actives have a fitted effect of over 65% in size
Procedure, shortened: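 One parasite generation (48 h, 37 C, 5% CO2) of luciferase-reporter P. falciparum in erythrocytes is run with test compound; decreased luminescence indicates inhibited growth.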

[7] = target: Mitogen-activated protein kinase 10 (Mus musculus) (UniProt Q61831); assay: JNK3 AlphaScreen Assay (AID 530; active means well fitted curve in either direction with a large enough effect, not every such curve was filed as active; inconclusive means small, poorly fitted or top-dose-only effect, or another doubt;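 further: kinase came from lysate of stimulated human HepG2 cells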; further: potency means the concentration at half of the fitted maximal effect;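 on activity change, negative = inhibition: signal reports phosphorylation of biotinylated GST-cJun 1-79 at Ser73 with 10 µM ATP; on the % scale 0 is the no-effect control and ±100 the full control effect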); settings: JNK3 lysate, c-Jun phosphorylation; activity change, negative = inhibition: at 57.1 µM (top of the series)
Procedure, shortened: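 qHTS format: compounds tested as titrations against IL-1beta/TNF-alpha-activated HepG2 lysate JNK3 with biotin-GST-cJun substrate and 10 uM ATP at room temperature. Loss of anti-phospho-cJun AlphaScreen signal indicates inhibition.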

[8] = qHTS Assay for Identification of Small Molecule Agonists for Thrombopoietin (TPO) Signaling Pathway (AID 917); settings: TPO signaling pathway reporter cells, agonist qHTS, stimulated with TPO at its EC50; series mostly up to 38.5 µM; further: potency means the concentration at half of the fitted maximal effect
Procedure, shortened: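 Murine Ba/F3 cells expressing human TPO receptor and GPIIb-promoter luciferase, IL-3-starved overnight, given compound plus TPO at 26 pM (EC50). After 24 h at 37 C, 5% CO2, luminescence read.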

[9] = target: Calcium and integrin-binding protein 1 (Homo sapiens) (UniProt Q99828); assay: Validation qHTS for Identification of Calcium Integrin Binding protein 1 (CIB1) Competitor (AID 1508618); settings: CIB1-GST / FITC-alphaIIb peptide fluorescence polarization; series mostly up to 114 µM; further: potency means the concentration at half of the fitted maximal effect
Procedure, shortened: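 In this qHTS validation, the LOPAC set (up to 114 uM) was tested for blocking CIB1 binding to a fluorescein-tagged alphaIIb peptide, with FP detection at 480/540 nm.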

[10] = target: Muscarinic acetylcholine receptor M1 (Rattus norvegicus) (UniProt P08482); assay: qHTS Assay for Antagonists of Acetylcholine Muscarinic M1 Receptor: Kinetic Measurement of Intracellular Calcium Response (AID 943); settings: M1-expressing cells, kinetic intracellular calcium fluorescence; series mostly up to 35.3 µM; further: potency means the concentration at half of the fitted maximal effect; nearly all actives have a fitted effect of over 75% in size
Procedure, shortened: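 Intracellular calcium flux, recorded with Fluo-4 in a kinetic plate reader, served as signal; the response to carbachol at EC80 (100 nM final) was taken as maximal over minimal fluorescence after a 10 min compound pre-incubation in rat M1-CHO cells.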

[11] = target: Glutathione peroxidase 1 (Homo sapiens) (UniProt P07203); assay: Primary qHTS Assay for Inhibitors of Recombinant Selenoprotein Glutathione Peroxidase 1 (GPX1) (AID 1845191); settings: recombinant GPX1, GR-coupled NADPH fluorescence, 15 min; series mostly up to 48.8 µM; further: nearly all actives have a fitted effect of over 65% in size; further: potency means the concentration at half of the fitted maximal effect; on activity, negative = inhibition: on the % scale 0 is the no-effect control and ±100 the full control effect
Procedure, shortened: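 GR-coupled assay: compounds preincubated 30 min at room temperature with GPX1, then reaction started with CHP; final 10 nM GPX1, 1 mM GSH, 0.5 mM CHP, 0.5 mM NADPH, 100 nM GR, 0.01% BSA, pH 7.5 Tris buffer. NADPH fluorescence (340/450 nm) read at 0 and 15 min.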

[12] = AP1 Signaling Pathway (AID 357; active means well fitted curve in either direction with a large enough effect, not every such curve was filed as active; inconclusive means small, poorly fitted or top-dose-only effect, or another doubt;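 further: ME-180 reporter cells stimulated with EGF at its EC50 level; on the % scale 0 is the no-effect control and ±100 the full control effect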); settings: ME-180 (cervical carcinoma) AP-1-bla reporter, EGF-induced, beta-lactamase ratio, 5 h; at 38 µM (top of the series)
Procedure, shortened: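 AP-1-bla ME-180 cells, Opti-MEM + 0.5% dialyzed FBS, plated overnight 37 °C. Cpd titration + EC50 EGF, 5 h 37 °C. CCF4 2.5 h RT; ex 405, em 460/530 ratio → %activity, AC50.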

For COc1ccccc1N1CCN(CCN(C(=O)c2ccc(I)cc2)c2ccccn2)CC1, the activity, negative = inhibition [1] was inconclusive: 157% [activator], the Potency [2] was inconclusive: 15.8 µM [inhibitor, partial curve, poor fit] and the Potency [3] was inconclusive: 2.93 µM [falling, single point]. For the same compound, the activity change [4] was inconclusive: -33.3%.
In the case of COc1cc(OC)c(/C=C2/C(=O)Nc3ccccc32)c(OC)c1, the activity, negative = inhibition [1] is reported as inconclusive: -44.7% [inhibitor].
For Fc1cccc(/C=N/N=C/c2cccc(F)c2)c1, the Potency [5] was inconclusive: 8.91 µM [inhibitor, partial curve, poor fit], the activity change [4] was inconclusive: -36.5% and the Potency [6] was inconclusive: 18.5 µM [inhibitor, single point].
For O=C(c1cc(O)c(O)c([N+](=O)[O-])c1)c1ccccc1F, the activity change, negative = inhibition [7] was inconclusive: 35.2% [activator], the Potency [8] was “inactive” and the Potency [5] was inconclusive: 8.91 µM [inhibitor, partial curve]. The Potency [9] was inconclusive: 39.8 µM [inhibitor, partial curve].
For Cc1cc2c(cc1Cl)N(C(=O)Nc1ccc(Oc3cccnc3C)nc1)CC2, the Potency [3] was inconclusive: 23.3 µM [falling, single point].
In the case of COc1cc2c(CCNC(C)=O)c[nH]c2cc1Cl, the Potency [7] is reported as inconclusive: 0.00501 µM [activator, full curve, poor fit], the Potency [2] is reported as inconclusive: 12.6 µM [inhibitor, partial curve] and the Potency [8] is reported as inconclusive: 25.1 µM [activator, single point]. The Potency [10] was inconclusive: 0.0028 µM [inhibitor, full curve, poor fit], the Potency [5] was inconclusive: 3.55 µM [inhibitor, partial curve, poor fit] and the Potency [11] was “inactive”.
For N#CC(=C(\N)Sc1ccccc1N)/C(C#N)=C(/N)Sc1ccccc1N, the Potency [3] was inconclusive: 13.1 µM [falling, partial curve], the Potency [9] was inconclusive: 20 µM [inhibitor, single point] and the Potency [11] was inconclusive: 31.6 µM [inhibitor, single point].
In the case of CCCCCCCCCCCCCCCCCC(=O)OC(CC(=O)O)C[N+](C)(C)C (stereo not drawn), the Potency [6] is reported as inconclusive: 1.04 µM [inhibitor, partial curve, poor fit].
With CC[C@@H]1Cc2cc(O)ccc2C2=C1c1ccc(O)cc1C[C@H]2CC the activity change, negative = inhibition [12] was inconclusive: -109% [inhibitor], the activity, negative = inhibition [1] was inconclusive: -36.3% [inhibitor] and the Potency [2] was inconclusive: 25.1 µM [cytotoxic, side channel, single point]. For the same compound, the Potency [8] was inconclusive: 5.01 µM [inhibitor, full curve] and the Potency [10] was active: 12.6 µM.
For CCCC(=O)NCCc1c2n(c3ccc(OC)cc13)CCCc1ccccc1-2, the activity change, negative = inhibition [12] was inconclusive: -31.3% [inhibitor], the activity, negative = inhibition [1] was inconclusive: -35.5% [inhibitor] and the Potency [8] was inconclusive: 10 µM [inhibitor, partial curve]. For the same compound, the Potency [10] was inconclusive: 7.94 µM [inhibitor, partial curve, poor fit].
With N#C/C(=C\c1ccc(-c2cc(Cl)ccc2Cl)o1)C(=O)Nc1cccc2ncccc12 the activity change [4] was inconclusive: -81.2%.
For C=C1C(=O)O[C@@H]2[C@H]3O[C@]3(C)CCC=C(C)CC[C@@H]12, the Potency [9] was inconclusive: 10 µM [inhibitor, full curve].
In the case of CC[n+]1c(/C=C/C=C2/N(C)c3ccccc3C2(C)C)sc2ccccc21, the Potency [3] is reported as active: 0.0521 µM.
In the case of CCCCCC(O)c1cccc(OCc2ccc3ccccc3n2)c1 (stereo not drawn), the activity change [4] is reported as inconclusive: -34.1%.
With S=C(S)N1CCCC1 the Potency [7] was inconclusive: 20 µM [inhibitor, partial curve].
With O=C1O/C(=C/Br)CCC1c1cccc2ccccc12 (stereo not drawn) the Potency [3] was inconclusive: 26.1 µM [falling, single point].
